In the test the target is GST-tagged CD44HABD^R41AR78SY79S (CD443MUT), non-HA-binding triple mutant (human) (UniProt P16070). Kind of test: affinity purification with mass spectrometry; GST-CD443MUT on glutathione beads, CHAPS-solubilised HUVEC lysate, overnight 4°C; elution with reduced glutathione, SDS-PAGE, silver staining, band identified by MALDI-TOF MS; only the target purified.

Amino acid sequences for entries named in this document (tags omitted). A change or cut given only in a name is not applied to a line headed by its entry. Chains listed by the source or under a name are the forms on record and can include a tag or linker.
GST-tagged CD44HABD^R41AR78SY79S (CD443MUT), non-HA-binding triple mutant (P16070, form named): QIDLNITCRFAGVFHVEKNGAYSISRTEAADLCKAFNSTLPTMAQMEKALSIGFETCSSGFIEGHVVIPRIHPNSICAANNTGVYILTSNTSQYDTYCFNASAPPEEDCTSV
UniProt P08670: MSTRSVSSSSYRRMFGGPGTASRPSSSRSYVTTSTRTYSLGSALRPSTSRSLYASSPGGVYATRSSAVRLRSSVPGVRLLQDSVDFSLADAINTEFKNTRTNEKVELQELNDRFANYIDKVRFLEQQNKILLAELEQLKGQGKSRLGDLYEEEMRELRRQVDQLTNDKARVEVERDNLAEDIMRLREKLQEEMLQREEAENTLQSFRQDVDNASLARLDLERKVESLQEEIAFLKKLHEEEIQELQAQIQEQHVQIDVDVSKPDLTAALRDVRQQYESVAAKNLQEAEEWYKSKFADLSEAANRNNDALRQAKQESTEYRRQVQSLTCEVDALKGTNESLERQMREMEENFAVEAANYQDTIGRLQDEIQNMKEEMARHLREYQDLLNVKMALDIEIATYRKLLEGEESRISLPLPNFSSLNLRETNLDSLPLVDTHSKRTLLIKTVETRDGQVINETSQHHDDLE

These are yes or no findings as the source states them, for the method shown. In cells and extracts the contact can be indirect. These calls come from enrichment with a bait or labelling near it, and not all partners need be listed.

Turning to “endogenous vimentin of HUVEC (from UniProt P08670 1-466)”, the binding result is given as “binds”.
